Compound in this assay: CCc1cnccc1C(=O)Nc1cc2c(cc1F)NC(=O)CC2
Kind of assay: melting temperature shift (DMSO Tm minus MBE1-treated Tm) in cellular thermal proteome profiling; higher = less thermal stabilization by MBE1 (negative = stabilized by MBE1). The conditions noted are these: A375.

Chains of the proteins cited; added tags and fusions are not shown. Lines headed by an entry give the natural chain unless they say otherwise; changes in a name come on top.
UniProt O43148, whole entry: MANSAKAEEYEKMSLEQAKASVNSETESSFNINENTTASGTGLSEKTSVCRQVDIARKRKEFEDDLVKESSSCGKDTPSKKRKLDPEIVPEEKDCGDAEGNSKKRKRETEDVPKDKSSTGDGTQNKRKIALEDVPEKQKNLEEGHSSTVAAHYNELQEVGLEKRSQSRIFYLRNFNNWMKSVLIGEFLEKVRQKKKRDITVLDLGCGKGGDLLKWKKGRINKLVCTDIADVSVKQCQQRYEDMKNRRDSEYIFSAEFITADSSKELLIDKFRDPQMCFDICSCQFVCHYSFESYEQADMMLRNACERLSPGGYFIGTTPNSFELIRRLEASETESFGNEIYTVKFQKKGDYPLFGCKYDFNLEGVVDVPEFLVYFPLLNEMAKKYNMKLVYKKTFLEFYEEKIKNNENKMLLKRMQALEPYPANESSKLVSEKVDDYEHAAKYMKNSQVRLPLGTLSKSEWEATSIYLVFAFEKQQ
UniProt O43293: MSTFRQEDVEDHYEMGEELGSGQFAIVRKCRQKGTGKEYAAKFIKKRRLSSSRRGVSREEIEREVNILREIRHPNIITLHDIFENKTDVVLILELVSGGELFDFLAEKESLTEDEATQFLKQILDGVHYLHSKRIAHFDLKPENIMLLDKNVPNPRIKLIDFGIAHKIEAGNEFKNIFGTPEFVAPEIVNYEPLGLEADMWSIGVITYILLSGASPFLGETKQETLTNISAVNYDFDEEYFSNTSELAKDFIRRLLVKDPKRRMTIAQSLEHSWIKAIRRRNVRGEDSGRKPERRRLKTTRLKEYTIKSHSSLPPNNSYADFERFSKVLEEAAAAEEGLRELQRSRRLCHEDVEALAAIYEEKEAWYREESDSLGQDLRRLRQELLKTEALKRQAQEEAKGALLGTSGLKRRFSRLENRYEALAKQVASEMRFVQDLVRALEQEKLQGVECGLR
UniProt O15355: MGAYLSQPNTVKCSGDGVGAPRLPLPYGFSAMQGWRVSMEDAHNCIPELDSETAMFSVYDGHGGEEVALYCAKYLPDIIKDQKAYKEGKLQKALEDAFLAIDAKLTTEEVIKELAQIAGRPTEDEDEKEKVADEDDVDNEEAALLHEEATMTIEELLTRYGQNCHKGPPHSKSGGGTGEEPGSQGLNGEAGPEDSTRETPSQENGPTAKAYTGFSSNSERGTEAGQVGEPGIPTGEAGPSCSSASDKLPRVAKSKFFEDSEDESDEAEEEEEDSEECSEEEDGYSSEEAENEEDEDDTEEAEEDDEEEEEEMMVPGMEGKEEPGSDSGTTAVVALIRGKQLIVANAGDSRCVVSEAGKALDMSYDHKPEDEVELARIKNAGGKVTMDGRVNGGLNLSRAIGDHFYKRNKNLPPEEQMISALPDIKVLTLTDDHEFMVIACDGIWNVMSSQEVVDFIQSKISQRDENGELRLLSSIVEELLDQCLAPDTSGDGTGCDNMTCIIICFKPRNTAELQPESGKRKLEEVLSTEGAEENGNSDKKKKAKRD
UniProt O00170: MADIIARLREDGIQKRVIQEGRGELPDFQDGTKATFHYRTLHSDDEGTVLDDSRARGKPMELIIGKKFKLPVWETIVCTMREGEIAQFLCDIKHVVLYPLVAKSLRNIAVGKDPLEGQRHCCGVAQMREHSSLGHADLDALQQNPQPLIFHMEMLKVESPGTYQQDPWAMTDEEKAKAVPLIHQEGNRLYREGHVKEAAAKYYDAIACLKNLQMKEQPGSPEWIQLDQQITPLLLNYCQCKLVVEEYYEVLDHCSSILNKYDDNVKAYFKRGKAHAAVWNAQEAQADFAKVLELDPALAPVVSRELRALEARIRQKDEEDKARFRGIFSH
UniProt O00154: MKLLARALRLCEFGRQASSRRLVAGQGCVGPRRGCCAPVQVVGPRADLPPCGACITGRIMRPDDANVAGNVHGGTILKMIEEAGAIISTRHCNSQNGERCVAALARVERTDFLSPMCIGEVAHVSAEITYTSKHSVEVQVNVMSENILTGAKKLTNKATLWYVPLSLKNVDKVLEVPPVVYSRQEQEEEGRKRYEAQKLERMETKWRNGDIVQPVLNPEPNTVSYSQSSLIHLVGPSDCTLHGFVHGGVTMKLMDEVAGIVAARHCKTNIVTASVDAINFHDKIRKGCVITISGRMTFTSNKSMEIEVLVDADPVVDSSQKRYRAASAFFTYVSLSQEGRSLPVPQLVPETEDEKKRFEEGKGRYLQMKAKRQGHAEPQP
UniProt O15381: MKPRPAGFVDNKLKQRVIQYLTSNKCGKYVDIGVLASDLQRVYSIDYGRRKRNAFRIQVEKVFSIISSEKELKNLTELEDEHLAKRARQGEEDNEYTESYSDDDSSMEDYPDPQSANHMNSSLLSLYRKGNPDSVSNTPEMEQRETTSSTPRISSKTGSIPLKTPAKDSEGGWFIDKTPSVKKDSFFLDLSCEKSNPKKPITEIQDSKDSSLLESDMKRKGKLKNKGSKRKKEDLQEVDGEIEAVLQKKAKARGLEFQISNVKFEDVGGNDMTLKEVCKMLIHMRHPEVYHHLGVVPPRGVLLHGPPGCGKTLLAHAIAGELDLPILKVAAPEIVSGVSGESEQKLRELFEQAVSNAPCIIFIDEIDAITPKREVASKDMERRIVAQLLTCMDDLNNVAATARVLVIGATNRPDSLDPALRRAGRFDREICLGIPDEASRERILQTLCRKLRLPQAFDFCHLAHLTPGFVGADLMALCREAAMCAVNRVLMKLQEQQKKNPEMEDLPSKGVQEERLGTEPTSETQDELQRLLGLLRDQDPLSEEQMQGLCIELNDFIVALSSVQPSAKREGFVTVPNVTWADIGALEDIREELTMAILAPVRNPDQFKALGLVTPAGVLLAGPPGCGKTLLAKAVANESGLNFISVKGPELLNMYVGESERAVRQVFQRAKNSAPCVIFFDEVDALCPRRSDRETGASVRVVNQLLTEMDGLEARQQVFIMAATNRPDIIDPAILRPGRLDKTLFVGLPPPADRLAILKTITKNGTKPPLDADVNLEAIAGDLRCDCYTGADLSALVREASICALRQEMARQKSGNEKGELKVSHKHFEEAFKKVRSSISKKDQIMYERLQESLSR
UniProt O15254: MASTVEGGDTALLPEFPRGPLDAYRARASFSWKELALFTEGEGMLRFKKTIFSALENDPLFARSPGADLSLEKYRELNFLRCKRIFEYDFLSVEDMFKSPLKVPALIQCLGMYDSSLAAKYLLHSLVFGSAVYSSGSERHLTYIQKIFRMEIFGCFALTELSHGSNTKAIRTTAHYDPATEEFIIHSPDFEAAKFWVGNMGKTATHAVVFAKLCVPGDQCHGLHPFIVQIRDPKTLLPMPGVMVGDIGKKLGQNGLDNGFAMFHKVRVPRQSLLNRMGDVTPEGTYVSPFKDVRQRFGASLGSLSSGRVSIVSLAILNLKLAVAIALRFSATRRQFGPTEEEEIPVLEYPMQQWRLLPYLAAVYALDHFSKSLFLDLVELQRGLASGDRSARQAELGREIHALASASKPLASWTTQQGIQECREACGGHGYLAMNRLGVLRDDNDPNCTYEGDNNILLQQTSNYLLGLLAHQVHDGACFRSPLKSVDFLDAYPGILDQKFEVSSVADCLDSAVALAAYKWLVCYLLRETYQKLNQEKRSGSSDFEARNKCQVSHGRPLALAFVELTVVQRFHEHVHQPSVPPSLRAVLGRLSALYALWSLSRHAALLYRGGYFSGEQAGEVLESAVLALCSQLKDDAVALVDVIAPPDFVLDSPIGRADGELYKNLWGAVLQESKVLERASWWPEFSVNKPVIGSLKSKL
UniProt O14920: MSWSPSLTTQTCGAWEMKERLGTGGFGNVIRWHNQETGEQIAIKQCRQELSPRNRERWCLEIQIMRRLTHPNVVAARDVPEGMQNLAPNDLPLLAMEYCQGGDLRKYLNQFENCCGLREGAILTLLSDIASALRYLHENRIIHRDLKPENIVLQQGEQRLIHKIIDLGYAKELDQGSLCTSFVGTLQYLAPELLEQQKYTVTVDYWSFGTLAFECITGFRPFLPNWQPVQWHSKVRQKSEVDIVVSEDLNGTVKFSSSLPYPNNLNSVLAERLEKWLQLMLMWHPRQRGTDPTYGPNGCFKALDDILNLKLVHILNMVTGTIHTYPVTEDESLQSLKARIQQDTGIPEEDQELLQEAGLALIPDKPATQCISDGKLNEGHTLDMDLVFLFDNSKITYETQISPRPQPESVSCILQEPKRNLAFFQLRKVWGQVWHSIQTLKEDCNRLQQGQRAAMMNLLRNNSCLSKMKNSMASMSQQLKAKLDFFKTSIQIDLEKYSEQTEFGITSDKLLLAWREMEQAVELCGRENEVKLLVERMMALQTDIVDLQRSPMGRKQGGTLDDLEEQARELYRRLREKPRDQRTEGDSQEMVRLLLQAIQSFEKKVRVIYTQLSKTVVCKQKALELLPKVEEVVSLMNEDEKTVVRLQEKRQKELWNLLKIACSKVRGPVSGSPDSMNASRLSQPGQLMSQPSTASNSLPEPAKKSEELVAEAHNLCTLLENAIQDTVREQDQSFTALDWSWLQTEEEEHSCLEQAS
UniProt O14966: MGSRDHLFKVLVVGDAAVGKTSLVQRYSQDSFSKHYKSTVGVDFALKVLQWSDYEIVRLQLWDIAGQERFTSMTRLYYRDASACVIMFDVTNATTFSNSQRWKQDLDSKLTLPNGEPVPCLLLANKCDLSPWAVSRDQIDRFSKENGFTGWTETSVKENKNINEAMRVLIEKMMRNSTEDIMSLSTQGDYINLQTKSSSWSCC
UniProt O15498: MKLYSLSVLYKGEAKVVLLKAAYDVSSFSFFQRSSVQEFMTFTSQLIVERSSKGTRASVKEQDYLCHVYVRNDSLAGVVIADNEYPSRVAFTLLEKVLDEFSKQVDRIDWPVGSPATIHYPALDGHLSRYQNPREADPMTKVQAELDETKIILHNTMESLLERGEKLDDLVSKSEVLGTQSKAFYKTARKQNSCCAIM
UniProt O00330, whole entry: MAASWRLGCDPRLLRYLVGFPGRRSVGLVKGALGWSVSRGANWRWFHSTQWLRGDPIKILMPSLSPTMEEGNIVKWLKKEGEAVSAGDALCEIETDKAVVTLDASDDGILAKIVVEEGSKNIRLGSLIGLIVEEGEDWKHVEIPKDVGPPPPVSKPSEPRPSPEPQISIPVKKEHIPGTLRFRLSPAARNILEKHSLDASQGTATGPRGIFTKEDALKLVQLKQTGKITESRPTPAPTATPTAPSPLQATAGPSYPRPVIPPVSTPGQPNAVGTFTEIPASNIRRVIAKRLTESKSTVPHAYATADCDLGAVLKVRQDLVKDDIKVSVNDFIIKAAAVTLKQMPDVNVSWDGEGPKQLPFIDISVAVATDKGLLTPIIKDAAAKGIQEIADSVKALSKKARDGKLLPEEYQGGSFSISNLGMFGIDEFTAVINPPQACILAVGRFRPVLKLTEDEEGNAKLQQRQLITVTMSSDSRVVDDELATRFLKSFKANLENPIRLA
UniProt O00461: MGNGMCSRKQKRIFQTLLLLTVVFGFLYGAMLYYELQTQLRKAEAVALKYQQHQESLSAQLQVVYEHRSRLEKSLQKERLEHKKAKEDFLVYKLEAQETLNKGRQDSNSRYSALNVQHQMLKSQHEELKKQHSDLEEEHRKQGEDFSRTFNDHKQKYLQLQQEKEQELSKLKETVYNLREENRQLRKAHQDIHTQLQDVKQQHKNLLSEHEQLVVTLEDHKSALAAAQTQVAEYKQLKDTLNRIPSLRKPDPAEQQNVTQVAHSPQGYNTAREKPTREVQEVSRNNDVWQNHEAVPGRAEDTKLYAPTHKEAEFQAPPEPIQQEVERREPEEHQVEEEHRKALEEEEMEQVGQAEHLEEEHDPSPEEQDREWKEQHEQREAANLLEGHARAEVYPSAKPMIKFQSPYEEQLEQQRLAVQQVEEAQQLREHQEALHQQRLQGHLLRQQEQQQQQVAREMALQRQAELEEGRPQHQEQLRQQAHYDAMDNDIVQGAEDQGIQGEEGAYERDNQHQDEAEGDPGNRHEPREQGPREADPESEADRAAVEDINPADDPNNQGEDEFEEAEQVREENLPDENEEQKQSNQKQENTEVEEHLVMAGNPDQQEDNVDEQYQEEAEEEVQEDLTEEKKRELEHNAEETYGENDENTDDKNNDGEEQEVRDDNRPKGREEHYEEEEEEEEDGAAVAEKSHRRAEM
UniProt O14880: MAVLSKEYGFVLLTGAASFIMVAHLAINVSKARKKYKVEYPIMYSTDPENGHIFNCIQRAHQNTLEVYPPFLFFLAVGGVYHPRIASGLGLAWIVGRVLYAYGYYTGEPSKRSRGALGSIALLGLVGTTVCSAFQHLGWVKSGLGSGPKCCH
UniProt O14734: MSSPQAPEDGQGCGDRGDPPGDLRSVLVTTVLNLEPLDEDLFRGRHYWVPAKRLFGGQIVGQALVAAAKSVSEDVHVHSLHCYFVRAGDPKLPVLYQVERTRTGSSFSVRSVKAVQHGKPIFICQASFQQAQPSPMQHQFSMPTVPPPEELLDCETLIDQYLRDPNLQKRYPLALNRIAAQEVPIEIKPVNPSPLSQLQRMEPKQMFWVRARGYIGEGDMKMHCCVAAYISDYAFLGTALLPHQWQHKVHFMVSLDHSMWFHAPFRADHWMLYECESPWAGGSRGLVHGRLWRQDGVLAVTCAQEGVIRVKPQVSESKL

The other results are listed elsewhere or left out. The data scatter; read single values as rough.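 Many melting curves are irregular; where none melted, Tm was taken as 64 °C.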

For COX7A2L (UniProt O14548), the melting temperature shift (MBE1 concentration: 100 nM) was -3.78 °C and the melting temperature shift (MBE1 concentration: 1 uM) was determined as 0.287 °C.

With RNMT (UniProt O43148), the melting temperature shift reads like this: (MBE1 concentration: 100 nM) -1.61 °C; (MBE1 concentration: 1 uM) -0.586 °C.

As to DAPK3 (UniProt O43293), the melting temperature shift runs as follows: (MBE1 concentration: 100 nM) -0.673 °C; (MBE1 concentration: 1 uM) -0.588 °C.

Turning to PPM1G (UniProt O15355), the melting temperature shift runs as follows: (MBE1 concentration: 100 nM) 0.0448 °C; (MBE1 concentration: 1 uM) -0.0641 °C.

In the case of UniProt O00160, the melting temperature shift (MBE1 concentration: 100 nM) was 0.513 °C and the melting temperature shift (MBE1 concentration: 1 uM) amounted to 0.305 °C.

On to AIP (UniProt O00170), for which the melting temperature shift reads like this: (MBE1 concentration: 100 nM) 0.721 °C; (MBE1 concentration: 1 uM) -0.311 °C.

As to COPE (UniProt O14579), the melting temperature shift (MBE1 concentration: 100 nM) was determined as 0.891 °C and the melting temperature shift (MBE1 concentration: 1 uM) is -0.0305 °C.

As for ACOT7 (UniProt O00154), the melting temperature shift is -1.48 °C (MBE1 concentration: 100 nM) and -0.841 °C (MBE1 concentration: 1 uM).

Consider NVL (UniProt O15381), for which the melting temperature shift by setting is: (MBE1 concentration: 100 nM) -1.42 °C; (MBE1 concentration: 1 uM) -0.186 °C.

On to UniProt O15254, for which the melting temperature shift runs as follows: (MBE1 concentration: 100 nM) -1.25 °C; (MBE1 concentration: 1 uM) 0.899 °C.

Take MPHOSPH10 (UniProt O00566): the melting temperature shift is, setting by setting: (MBE1 concentration: 100 nM) 0.611 °C; (MBE1 concentration: 1 uM) 0.721 °C.

As for UniProt O14920, the melting temperature shift is, setting by setting: (MBE1 concentration: 100 nM) -0.494 °C; (MBE1 concentration: 1 uM) -0.899 °C.

On to RAB29 (UniProt O14966), for which the melting temperature shift runs as follows: (MBE1 concentration: 100 nM) -0.0469 °C; (MBE1 concentration: 1 uM) 0.275 °C.

Take TNPO2 (UniProt O14787): the melting temperature shift runs as follows: (MBE1 concentration: 100 nM) -0.793 °C; (MBE1 concentration: 1 uM) -0.296 °C.

YKT6 (UniProt O15498): the melting temperature shift (MBE1 concentration: 100 nM) is -0.598 °C and the melting temperature shift (MBE1 concentration: 1 uM) is 0.812 °C.

On to PDHX (UniProt O00330), for which the melting temperature shift runs as follows: (MBE1 concentration: 100 nM) -0.988 °C; (MBE1 concentration: 1 uM) 0.598 °C.

As for GOLIM4 (UniProt O00461), the melting temperature shift is, setting by setting: (MBE1 concentration: 100 nM) -0.543 °C; (MBE1 concentration: 1 uM) -0.0872 °C.

Turning to MGST3 (UniProt O14880), the melting temperature shift by setting is: (MBE1 concentration: 100 nM) -1.42 °C; (MBE1 concentration: 1 uM) -2.64 °C.

For UniProt O00522, the melting temperature shift is -0.532 °C (MBE1 concentration: 100 nM) and -0.551 °C (MBE1 concentration: 1 uM).

Consider PSMD14 (UniProt O00487), for which the melting temperature shift is -1.37 °C (MBE1 concentration: 100 nM) and -0.263 °C (MBE1 concentration: 1 uM).

Consider UniProt O14593, for which the melting temperature shift reads like this: (MBE1 concentration: 100 nM) -0.0518 °C; (MBE1 concentration: 1 uM) -1.01 °C.

Consider UniProt O15131, for which the melting temperature shift runs as follows: (MBE1 concentration: 100 nM) -0.113 °C; (MBE1 concentration: 1 uM) -0.922 °C.

NDUFAB1 (UniProt O14561): the melting temperature shift runs as follows: (MBE1 concentration: 100 nM) -1.27 °C; (MBE1 concentration: 1 uM) -1.98 °C.

Turning to ACOT8 (UniProt O14734), the melting temperature shift was -0.0733 °C (MBE1 concentration: 100 nM) and 0.476 °C (MBE1 concentration: 1 uM).

Regarding CASC3 (UniProt O15234), the melting temperature shift runs as follows: (MBE1 concentration: 100 nM) -7.13 °C; (MBE1 concentration: 1 uM) 6.82 °C.

The record behind these values is the supplement of paper PMC12595434, “Development of retinoid nuclear receptor pathway antagonists through targeting aldehyde dehydrogenase 1A3” (iScience, 2025).
